Assay results from US4370330A, “Method of enhancing circulation with piperazines” (Merz & Company, priority 1979, dated 1983).
Where two headings read alike, the source gives them in different places.

Compound: C(=C\c1ccccc1)/CN1CCN(C(c2ccccc2)c2ccccc2)CC1 [Cinnarizine, reference compound]
- ED50 (Table 2, mean effective dose): 0,6 mg/kg
- ED50 (Table 6): 0.6 mg/kg
